Results reported in PMC10202695.

Protein sequences, listed by entry. Tags and fused reporters are not part of them. Residues count along the entry.
UniProt P21796: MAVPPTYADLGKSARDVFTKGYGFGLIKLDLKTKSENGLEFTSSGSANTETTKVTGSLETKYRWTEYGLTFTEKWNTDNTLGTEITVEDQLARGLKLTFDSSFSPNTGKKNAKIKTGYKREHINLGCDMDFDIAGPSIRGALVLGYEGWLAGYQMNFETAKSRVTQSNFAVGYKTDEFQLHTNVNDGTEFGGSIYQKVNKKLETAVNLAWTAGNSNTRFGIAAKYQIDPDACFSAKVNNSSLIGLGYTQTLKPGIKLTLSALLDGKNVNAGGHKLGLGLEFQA
UniProt Q15388: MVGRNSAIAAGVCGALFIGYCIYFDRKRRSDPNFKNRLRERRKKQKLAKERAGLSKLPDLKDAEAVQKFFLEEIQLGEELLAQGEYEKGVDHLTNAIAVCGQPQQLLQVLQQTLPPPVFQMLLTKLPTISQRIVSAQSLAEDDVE
UniProt P38646, residues 47-679: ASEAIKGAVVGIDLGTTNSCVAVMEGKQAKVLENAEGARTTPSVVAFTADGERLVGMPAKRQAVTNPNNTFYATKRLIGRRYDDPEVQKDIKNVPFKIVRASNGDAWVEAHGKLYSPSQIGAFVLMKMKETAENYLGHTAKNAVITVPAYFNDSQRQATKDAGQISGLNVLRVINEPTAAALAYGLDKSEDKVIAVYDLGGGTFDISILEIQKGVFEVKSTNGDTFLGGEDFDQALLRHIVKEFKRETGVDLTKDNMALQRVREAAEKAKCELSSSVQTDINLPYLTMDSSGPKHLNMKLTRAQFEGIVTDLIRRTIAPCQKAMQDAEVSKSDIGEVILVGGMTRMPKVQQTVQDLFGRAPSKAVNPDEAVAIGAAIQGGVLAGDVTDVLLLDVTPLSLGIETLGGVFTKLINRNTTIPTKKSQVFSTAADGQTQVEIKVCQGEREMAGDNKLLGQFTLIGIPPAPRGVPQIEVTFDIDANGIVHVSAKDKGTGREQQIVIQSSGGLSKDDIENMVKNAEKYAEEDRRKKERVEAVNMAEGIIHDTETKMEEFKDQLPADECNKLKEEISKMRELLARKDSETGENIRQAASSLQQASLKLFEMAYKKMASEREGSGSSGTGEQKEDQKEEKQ

The substances below were run against T1, Myc-tagged WFS1 (Wolfram syndrome 1; wolframin) (UniProt O76024) (assay: affinity purification with mass spectrometry; lysate of HEK293 cells overexpressing Myc-WFS1; IP with WFS1 antibody or IgG from non-immunized animals (Dynabeads Protein A); SDS-PAGE, in-gel tryptic digestion, LC-MS/MS).
T1 sequence: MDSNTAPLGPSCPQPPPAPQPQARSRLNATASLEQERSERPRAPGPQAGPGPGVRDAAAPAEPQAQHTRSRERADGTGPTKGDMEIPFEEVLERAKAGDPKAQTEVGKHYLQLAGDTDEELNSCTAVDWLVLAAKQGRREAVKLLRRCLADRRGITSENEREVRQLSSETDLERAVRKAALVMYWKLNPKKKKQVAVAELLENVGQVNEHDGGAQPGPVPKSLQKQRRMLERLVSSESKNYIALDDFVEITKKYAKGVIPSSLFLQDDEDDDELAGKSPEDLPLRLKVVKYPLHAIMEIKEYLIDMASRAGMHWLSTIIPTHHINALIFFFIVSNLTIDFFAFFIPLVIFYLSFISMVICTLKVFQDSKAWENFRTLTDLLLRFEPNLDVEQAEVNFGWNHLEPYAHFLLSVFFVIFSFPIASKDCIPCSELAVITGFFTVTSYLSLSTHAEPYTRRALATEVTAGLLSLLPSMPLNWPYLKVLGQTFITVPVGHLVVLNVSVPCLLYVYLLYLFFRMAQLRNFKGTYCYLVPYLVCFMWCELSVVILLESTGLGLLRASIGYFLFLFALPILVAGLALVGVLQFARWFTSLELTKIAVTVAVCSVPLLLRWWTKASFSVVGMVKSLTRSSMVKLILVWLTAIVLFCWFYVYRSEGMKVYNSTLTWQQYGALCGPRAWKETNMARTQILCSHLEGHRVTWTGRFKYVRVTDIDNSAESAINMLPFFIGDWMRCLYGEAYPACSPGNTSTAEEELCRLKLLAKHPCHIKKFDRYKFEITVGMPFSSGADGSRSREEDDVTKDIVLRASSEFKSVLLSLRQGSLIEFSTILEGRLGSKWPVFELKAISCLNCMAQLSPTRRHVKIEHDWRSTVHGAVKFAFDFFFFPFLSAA

| binding | Substance |
| --- | --- |
| binds | voltage-dependent anion channel 1 (VDAC1), HEK293 (from UniProt P21796 1-283) |
| no binding | TOM20 (from UniProt Q15388 1-145) |
| binds | chaperone glucose-regulated protein GRP75 (from UniProt P38646 47-679) |

Results are given in words; binding and its absence hold for the method and conditions named. In cells and extracts the contact can be indirect. These calls come from enrichment with a bait or labelling near it, and not all partners need be listed. No binding means not detected with the bait. Where a sequence is shown, tags or fusion partners need not be part of it.
